Source: US11279708B2, “Amidino- and amino-rocaglates as novel translation inhibitors and anticancer agents” (priority 2019, dated 2022)
Some of these results come from one statement about several compounds together. For at least one compound, name, drawing or mass did not settle the structure.

Test system: NIH/3T3 cells
Experiment: Sulforhodamine B (SRB) cytotoxicity assay
Assay type: cell-based
Conditions: 40 nM, 4 days
Procedure: In cellula activity of rocaglates. All compounds in the rocaglate collection were assessed for cytotoxic activity towards NIH/3T3 cells as well as the rocaglate-resistant line, eIF4A^em1JP, which harbors an F163L mutation in eIF4A1. This mutation was originally identified following selection for RocA-resistant yeast mutants and F163 was subsequently shown to be critical for stacking with ring C of RocA (2) (FIG. 4). Although eIF4A2 is also a target of rocaglates, eIF4A1 F163L is sufficient to confer resistance to rocaglate-induced translation inhibition and cytotoxicity, likely due to eIF4A1 being the more abundant isoform in NIH/3T3 cells (250-fold higher). […]
Sulforhodamine B (SRB) assay. […] Plates were then washed 5 times with 1% acetic acid, dried, and the stained wells were resuspended with 10 mM Tris (pH 9) prior to measuring the absorbance at 510 nm using (Spectramax M5, Molecular Devices)
FIGS. 26A-26B. […] Cells were exposed to 40 nM compound for 4 days and viability was measured using the SRB assay. n=3±SD. […] HEK 293 cells were transfected with 0.5 μg of in vitro synthesized capped (AG)10-FF/HCV/Ren or (UC)10-FF/HCV/Ren mRNA and 1h later exposed to the indicated concentrations of compounds for an additional 6 h, at which time extracts were prepared and luciferase activity measured. n=3 SD.

| SMILES | cell death relative to vehicle-treated cells [%] |
| --- | --- |
| CONC(=O)[C@H]1[C@@H](O)[C@@]2(O)c3c(OC)cc(OC)cc3O[C@@]2(c2ccc(Br)cc2)[C@@H]1c1ccccc1 [SDS-1-021] | > 70 |
| CONC(=O)[C@H]1[C@@H](O)[C@@]2(O)c3c(OC)cc(OC)cc3O[C@@]2(c2ccc(OC)cc2)[C@@H]1c1ccccc1 [CR-1-31-B] | > 70 |
